Data taken from PMC7382273, “Rubisco accumulation factor 1 (Raf1) plays essential roles in mediating Rubisco assembly and carboxysome biogenesis” (Proceedings of the National Academy of Sciences of the …, 2020).
No constants are given. Whether binding was seen depends on the method and setting. Some binding calls cover weakened binding; strength is not graded here.

T1: Rubisco large subunit RbcL (Synechococcus elongatus PCC7942), recombinant, in the RbcL-Raf1 supercomplex (Synechococcus elongatus PCC7942), Q31NB3
T1 chain: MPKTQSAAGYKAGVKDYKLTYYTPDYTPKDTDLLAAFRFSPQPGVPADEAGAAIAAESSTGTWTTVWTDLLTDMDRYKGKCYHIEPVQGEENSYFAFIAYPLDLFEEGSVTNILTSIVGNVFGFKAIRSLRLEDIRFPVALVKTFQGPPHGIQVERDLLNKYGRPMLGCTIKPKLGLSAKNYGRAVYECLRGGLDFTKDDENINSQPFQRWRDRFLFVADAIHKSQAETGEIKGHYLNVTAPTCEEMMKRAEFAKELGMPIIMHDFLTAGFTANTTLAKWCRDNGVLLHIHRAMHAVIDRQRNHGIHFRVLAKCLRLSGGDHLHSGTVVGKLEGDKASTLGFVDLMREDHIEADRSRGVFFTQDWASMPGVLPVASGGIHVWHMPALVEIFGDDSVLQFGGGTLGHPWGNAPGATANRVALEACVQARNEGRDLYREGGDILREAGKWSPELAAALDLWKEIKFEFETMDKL


Assays:
[1] = molecular target: Rubisco large subunit RbcL, endogenous in Synechococcus elongatus PCC7942 (Synechococcus elongatus PCC7942 (endogenous in Syn7942 cells)) (UniProt Q31NB3); assay: native gel or EMSA; BN-PAGE (3 to 12% Bis-Tris NativePAGE) of 20 µg soluble protein from Syn7942 WT and Δraf1 cells, immunoblot with anti-RbcL antibody
[2] = molecular target: T1, Rubisco large subunit RbcL …; assay: cryo-EM structure; RbcL-Raf1 supercomplex co-expressed with GroES/EL in E. coli, purified by Ni-IMAC and Superdex 200; 1.2 mg/mL on Quantifoil grids; 200 kV Tecnai F20; 16,022 particles; 4.28 Å; both purified; conditions: remark: other sources report otherwise

Row | binding [1] | binding [2] | Molecule
1 | binds | – | Rubisco large subunit RbcL, endogenous in Synechococcus elongatus PCC7942 (from UniProt Q31NB3 1-472)
2 | – | binds | Rubisco accumulation factor 1 (Raf1) (Synechococcus elongatus PCC7942), recombinant (natural protein, UniProt Q31Q05 1-356, looked up, Raf1, Rubisco accumulation (assembly) factor 1, Synechococcus elongatus PCC7942, gene synpcc7942_0833 amplified from genomic DNA; N-terminal α-helical domain (Raf1α), flexible linker, C-terminal β-sheet dimerization domain (Raf1β); Only the Raf1α domains are modelled in PDB 6SMH; Raf1β could not be resolved; Four Raf1 dimers (eight chains) sit on one RbcL8 core; also called Rubisco assembly …) MREFTPTTLSEEERQELLGQLRRKEGRWLAWARACQTLLKNGLNPQTLFEATGFEPIQQNQITVAMQVYDSILRQDPPAHVRETYQEWGSDLLYELRELDQEQRSLCAQLALERKLDADQIREVAKATKDFCRLPKQPENFDRHPGDAVAHQCWRLAQERTDLTERSRLIARGLQFAQSAGARALIEALLLDLSGVPSRKPPMLPIYRLETEEDLPRLLPFAGTLPLSSSQIEAIAAVEAEGPFGLVSSPQGQQWLALPGWQAILTAEDPIACLEQIDRLPNAPEGPTEAVVLVVDRADRDWDADHFFLVEQAEGARIQWSPSAIAAPILGRLVLILRPKRVLDEAAIATPWQFEE
3 | binds | – | Rubisco small subunit RbcS, endogenous in Synechococcus elongatus PCC7942 (protein, UniProt Q31NB2 1-111) MSMKTLPKERRFETFSYLPPLSDRQIAAQIEYMIEQGFHPLIEFNEHSNPEEFYWTMWKLPLFDCKSPQQVLDEVRECRSEYGDCYIRVAGFDNIKQCQTVSFIVHRPGRY
